Results from the supplement of paper PMC10849652.
The list shows a part of the results.

Sequences of proteins named here, by UniProt entry; tags and fusion partners are left off. A change or cut given only in a name is not applied to a line headed by its entry.
UniProt P0DPB5: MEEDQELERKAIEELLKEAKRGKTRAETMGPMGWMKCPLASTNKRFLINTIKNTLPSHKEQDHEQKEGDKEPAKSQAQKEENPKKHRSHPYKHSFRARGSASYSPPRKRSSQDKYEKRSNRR
UniProt Q9NUX5: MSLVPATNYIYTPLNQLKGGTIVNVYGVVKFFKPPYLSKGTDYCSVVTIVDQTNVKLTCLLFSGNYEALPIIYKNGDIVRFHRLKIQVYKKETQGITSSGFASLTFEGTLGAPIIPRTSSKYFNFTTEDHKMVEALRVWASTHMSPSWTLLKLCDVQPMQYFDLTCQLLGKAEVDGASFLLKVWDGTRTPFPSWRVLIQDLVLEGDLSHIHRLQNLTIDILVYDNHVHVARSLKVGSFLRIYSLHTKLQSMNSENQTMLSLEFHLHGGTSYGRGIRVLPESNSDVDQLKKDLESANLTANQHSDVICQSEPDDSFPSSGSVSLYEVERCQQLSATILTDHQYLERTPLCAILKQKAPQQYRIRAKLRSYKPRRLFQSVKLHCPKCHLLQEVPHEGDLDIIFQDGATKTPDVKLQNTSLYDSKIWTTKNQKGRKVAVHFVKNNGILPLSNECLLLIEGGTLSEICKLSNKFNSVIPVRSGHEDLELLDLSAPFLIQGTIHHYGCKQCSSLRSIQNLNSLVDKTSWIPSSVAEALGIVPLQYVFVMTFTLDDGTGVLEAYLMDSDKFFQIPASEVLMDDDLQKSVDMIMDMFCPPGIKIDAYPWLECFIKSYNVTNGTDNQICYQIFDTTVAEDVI
UniProt Q9H9Y6, whole entry, looked up: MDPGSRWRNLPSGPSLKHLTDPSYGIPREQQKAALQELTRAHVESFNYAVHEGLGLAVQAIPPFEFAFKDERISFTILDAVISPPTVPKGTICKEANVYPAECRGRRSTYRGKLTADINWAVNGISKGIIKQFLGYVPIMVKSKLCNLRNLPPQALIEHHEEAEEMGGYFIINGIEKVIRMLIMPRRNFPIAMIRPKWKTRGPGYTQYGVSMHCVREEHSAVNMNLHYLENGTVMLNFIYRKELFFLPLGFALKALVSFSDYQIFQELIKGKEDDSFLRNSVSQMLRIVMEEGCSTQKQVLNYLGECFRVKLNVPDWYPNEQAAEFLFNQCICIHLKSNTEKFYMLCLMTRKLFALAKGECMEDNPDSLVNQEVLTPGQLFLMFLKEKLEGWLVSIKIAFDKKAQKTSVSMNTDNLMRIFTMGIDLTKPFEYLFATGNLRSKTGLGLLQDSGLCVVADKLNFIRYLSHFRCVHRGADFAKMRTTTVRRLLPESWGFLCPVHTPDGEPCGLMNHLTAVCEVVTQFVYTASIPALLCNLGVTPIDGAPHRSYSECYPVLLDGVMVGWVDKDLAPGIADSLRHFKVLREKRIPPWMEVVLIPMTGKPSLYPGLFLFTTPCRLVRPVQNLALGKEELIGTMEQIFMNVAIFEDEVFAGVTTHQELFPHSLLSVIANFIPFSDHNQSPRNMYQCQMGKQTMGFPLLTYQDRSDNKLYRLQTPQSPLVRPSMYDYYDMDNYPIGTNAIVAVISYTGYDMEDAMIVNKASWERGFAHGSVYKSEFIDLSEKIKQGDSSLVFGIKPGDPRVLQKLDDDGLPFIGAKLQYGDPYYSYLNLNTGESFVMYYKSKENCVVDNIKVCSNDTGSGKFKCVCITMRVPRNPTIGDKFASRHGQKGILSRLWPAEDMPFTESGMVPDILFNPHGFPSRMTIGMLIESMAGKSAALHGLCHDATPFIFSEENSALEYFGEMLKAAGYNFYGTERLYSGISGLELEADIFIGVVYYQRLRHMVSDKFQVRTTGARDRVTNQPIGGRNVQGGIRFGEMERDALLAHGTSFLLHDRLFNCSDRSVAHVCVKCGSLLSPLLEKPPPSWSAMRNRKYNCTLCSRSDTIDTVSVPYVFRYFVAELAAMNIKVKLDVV
UniProt Q04941: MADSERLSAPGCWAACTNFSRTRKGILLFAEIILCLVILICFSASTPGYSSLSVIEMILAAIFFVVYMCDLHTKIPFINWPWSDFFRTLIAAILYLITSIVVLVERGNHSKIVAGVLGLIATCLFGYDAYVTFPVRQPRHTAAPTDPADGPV
UniProt Q8WVV4: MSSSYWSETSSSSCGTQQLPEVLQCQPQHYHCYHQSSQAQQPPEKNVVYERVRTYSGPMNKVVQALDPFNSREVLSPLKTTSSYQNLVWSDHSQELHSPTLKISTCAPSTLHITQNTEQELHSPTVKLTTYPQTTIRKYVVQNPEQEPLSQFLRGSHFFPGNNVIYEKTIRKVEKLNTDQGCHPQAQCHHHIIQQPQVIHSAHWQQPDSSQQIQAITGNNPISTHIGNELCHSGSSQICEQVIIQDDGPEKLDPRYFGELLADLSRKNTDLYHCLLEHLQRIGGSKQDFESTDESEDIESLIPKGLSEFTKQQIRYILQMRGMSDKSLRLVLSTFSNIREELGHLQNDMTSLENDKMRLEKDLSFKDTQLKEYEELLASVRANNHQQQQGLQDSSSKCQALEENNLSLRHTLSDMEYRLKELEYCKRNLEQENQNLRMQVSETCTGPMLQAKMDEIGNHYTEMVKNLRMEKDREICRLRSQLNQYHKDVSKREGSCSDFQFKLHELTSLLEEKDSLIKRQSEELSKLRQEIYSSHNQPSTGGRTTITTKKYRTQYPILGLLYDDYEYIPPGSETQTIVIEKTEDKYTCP
UniProt O75145: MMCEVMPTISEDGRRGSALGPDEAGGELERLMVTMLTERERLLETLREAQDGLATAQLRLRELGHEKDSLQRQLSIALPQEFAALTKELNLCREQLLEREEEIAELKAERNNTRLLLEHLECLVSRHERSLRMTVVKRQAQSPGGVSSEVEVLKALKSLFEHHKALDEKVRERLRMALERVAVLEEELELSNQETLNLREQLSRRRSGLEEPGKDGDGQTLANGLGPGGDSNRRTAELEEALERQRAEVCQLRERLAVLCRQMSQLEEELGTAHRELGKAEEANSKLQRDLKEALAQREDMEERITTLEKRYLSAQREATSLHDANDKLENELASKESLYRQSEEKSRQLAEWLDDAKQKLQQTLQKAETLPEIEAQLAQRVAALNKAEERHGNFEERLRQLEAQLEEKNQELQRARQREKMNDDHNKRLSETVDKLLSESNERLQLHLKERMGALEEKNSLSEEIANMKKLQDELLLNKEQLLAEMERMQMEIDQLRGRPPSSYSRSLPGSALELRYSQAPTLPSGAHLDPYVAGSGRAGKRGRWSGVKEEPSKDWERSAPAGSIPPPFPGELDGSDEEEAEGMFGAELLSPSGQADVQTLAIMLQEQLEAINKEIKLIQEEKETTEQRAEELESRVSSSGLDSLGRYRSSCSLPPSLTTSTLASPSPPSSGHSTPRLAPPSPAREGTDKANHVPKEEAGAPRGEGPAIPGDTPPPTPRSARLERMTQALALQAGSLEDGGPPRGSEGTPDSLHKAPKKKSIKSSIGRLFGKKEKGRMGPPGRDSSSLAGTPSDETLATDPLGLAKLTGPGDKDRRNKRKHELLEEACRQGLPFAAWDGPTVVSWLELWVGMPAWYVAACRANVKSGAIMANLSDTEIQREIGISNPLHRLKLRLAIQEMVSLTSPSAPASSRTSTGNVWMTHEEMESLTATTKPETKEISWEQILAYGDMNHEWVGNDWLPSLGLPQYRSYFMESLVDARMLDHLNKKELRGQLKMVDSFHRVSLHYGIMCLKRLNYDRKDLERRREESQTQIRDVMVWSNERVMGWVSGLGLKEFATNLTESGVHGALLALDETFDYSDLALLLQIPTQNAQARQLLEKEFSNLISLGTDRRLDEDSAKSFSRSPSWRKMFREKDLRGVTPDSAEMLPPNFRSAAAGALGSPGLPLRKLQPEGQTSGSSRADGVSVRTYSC
UniProt Q8IYS1: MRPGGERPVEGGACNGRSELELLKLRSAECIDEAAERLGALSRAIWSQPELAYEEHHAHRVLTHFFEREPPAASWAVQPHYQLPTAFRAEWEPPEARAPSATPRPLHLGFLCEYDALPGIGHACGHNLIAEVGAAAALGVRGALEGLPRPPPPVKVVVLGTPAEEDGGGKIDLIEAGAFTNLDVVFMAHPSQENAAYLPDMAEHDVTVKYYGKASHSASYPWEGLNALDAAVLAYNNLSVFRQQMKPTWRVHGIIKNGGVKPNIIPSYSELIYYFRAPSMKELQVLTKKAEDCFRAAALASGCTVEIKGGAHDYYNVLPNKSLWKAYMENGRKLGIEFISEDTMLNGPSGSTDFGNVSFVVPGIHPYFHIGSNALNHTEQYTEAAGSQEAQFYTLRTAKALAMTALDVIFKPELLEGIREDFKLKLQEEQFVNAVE
UniProt Q9Y535: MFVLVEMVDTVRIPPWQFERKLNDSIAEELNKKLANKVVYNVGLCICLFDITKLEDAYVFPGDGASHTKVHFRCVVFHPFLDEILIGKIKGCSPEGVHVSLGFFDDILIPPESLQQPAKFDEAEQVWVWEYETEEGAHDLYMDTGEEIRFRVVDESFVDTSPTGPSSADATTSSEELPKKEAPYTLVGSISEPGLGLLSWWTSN
UniProt Q9H2H8: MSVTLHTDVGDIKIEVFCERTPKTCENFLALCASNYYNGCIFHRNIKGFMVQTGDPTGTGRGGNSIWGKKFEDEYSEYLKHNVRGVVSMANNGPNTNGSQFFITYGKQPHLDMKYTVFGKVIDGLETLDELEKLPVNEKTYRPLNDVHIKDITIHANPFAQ
UniProt Q9NW61: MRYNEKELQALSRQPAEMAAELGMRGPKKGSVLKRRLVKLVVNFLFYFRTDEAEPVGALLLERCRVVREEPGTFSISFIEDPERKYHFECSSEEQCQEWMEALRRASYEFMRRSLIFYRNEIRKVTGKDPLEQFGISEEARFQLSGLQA
UniProt Q9Y2S7: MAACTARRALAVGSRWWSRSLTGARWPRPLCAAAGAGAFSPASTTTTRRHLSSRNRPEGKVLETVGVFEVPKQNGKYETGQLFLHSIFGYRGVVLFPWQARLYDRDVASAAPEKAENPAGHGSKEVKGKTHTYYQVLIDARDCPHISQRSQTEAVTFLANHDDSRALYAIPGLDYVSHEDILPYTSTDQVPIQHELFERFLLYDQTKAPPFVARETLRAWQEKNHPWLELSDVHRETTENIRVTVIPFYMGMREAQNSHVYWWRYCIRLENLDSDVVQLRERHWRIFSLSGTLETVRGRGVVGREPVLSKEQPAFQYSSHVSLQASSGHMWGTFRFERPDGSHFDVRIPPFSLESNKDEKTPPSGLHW
UniProt Q9GZS1, whole entry, looked up: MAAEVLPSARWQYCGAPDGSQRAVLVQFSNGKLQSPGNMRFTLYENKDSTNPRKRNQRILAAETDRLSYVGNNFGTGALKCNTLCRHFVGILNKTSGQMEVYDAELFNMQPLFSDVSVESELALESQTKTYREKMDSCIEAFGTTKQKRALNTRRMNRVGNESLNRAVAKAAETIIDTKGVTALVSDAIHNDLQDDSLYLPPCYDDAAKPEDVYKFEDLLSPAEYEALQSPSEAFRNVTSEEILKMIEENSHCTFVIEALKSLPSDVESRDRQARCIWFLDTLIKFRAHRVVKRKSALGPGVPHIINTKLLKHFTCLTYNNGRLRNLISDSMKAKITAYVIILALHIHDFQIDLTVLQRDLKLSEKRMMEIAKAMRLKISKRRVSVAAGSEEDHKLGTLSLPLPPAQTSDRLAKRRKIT
UniProt Q9NRF9: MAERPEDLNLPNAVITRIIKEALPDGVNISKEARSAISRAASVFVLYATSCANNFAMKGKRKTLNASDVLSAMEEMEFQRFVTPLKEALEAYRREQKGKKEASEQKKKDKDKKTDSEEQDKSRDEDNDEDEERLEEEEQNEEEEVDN
UniProt P54278: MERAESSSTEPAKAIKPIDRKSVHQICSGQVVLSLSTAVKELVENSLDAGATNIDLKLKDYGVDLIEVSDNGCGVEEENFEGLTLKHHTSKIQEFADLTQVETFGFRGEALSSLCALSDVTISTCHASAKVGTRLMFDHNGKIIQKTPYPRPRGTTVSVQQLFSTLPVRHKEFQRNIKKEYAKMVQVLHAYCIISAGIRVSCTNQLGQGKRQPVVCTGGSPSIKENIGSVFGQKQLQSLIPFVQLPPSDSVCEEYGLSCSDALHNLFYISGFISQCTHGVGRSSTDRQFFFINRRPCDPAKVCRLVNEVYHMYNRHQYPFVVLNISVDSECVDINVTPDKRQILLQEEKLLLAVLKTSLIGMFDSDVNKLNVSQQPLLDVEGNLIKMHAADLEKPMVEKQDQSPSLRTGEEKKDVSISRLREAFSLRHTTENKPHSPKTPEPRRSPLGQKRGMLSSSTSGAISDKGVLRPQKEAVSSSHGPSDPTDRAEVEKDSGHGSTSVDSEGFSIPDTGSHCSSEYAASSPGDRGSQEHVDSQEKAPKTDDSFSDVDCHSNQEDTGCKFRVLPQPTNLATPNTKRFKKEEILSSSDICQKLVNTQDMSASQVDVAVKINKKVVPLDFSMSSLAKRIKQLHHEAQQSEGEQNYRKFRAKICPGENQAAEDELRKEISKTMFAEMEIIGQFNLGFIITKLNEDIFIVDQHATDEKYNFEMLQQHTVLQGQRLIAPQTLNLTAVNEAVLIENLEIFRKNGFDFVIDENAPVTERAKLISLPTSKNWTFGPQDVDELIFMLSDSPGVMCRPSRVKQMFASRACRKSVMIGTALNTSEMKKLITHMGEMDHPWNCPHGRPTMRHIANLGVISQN

Key:
Assay in all cases: log2 fold change, soluble protein after heating vs DMSO (PISA); higher = thermal stabilisation; K562 cells, 10 uM, 30 min; active = over 0.2 and 3.5 SD of the protein, either way, in both replicates (recomputed)
[1] = compound: C1=CC=C(C=C1)[C@H](COC2=CC3=C(C=C2)NC(=O)N3)NC(=O)C4=CC=CN(C4=O)CC5=CC(=C(C=C5)F)F
In short: (§1)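 K562 cells at 2×10^6 cells/mL were exposed to 10 μM compound for 30 min, then aliquots were heated for 3 min across 48°C-58°C, pooled, and extracted in PBS containing 0.5% NP-40 at 4°C. The supernatant after 21,000xg for 90 min was taken as soluble protein and measured by TMTpro 16plex LC-MS/MS with channel sums equalised. Thermal stability is reported relative to control samples, with values from duplicates. Fold changes are given on a log2 scale.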

[2] = compound: CC1=C(SC2=C1C(=N[C@H](C3=NN=C(N32)C)CC(=O)N)C4=CC=C(C=C4)Cl)C
In short: as §1

[3] = compound: Cc1sc2c(c1C)C(c1ccc(Cl)cc1)=N[C@@H](CC(=O)OC(C)(C)C)c1nnc(C)n1-2
In short: as §1

[4] = compound: c1ccc([C@@H]2C[C@H]2NC2CCNCC2)cc1
In short: as §1

[5] = compound: CC1=C2C(=CC=C1)N=C(N(C2=O)C3=CC=CC=C3C)CN4C=NC5=C(N=CN=C54)N
In short: as §1

Measured: log2 fold change

POLR1D (UniProt P0DPB5)
inactive: [1] 0.144 | [2] -0.021 | [3] 0.203 | [4] 0.051

POT1 (UniProt Q9NUX5)
inactive: [1] -0.081 | [3] 0.131

POLR1B isoform 3 (UniProt Q9H9Y6)
inactive: [2] -0.127 | [5] -0.093 | [3] 0.049 | [4] 0.029

PLP2 (UniProt Q04941)
inactive: [1] -0.484 | [2] 0.033 | [5] -0.149 | [4] 0.185

POLB (UniProt P06746)
inactive: [2] 0.053 | [3] -0.107 | [4] -0.006

POF1B isoform 1 (UniProt Q8WVV4)
inactive: [1] 0.441 | [5] -0.304 | [3] -0.125

PPFIA3 (UniProt O75145)
inactive: [2] -0.133 | [4] -0.049

PM20D2 (UniProt Q8IYS1)
inactive: [3] 0.032

PLXND1 (UniProt Q9Y4D7)
inactive: [1] -0.118 | [5] 0.243

POLR3H (UniProt Q9Y535)
inactive: [1] -0.139 | [2] -0.077 | [5] -0.073 | [4] 0.029

PPIL3 isoform 2 (UniProt Q9H2H8)
inactive: [1] 0.078 | [5] -0.074 | [3] -0.002

PPHLN1 (UniProt Q8NEY8)
inactive: [1] 0.109 | [5] -0.14

PNN (UniProt Q9H307)
inactive: [1] 0.084 | [2] 0.021 | [4] 0.012

6 consecutive records already listed, quoted:
POLB (UniProt P06746)
inactive: [2] 0.053 | [3] -0.107 | [4] -0.006

POF1B isoform 1 (UniProt Q8WVV4)
inactive: [1] 0.441 | [5] -0.304 | [3] -0.125

PPFIA3 (UniProt O75145)
inactive: [2] -0.133 | [4] -0.049

PM20D2 (UniProt Q8IYS1)
inactive: [3] 0.032

PLXND1 (UniProt Q9Y4D7)
inactive: [1] -0.118 | [5] 0.243

POLR3H (UniProt Q9Y535)
inactive: [1] -0.139 | [2] -0.077 | [5] -0.073 | [4] 0.029

Next part

PLEKHJ1 (UniProt Q9NW61)
inactive: [2] -0.039 | [4] -0.075

PPIP5K2 (UniProt H0Y9S9)
inactive: [1] 0.036 | [2] 0.029 | [3] -0.106 | [4] -0.018

POLDIP2 (UniProt Q9Y2S7)
inactive: [1] -0.03 | [2] 0.025 | [5] 0.046 | [3] -0.038 | [4] 0.016

PORCN (UniProt Q9H237)
inactive: [2] 0.053 | [5] -0.01 | [4] -0.007

POLR2L (UniProt P62875)
inactive: [2] 0.405 | [5] 0.146 | [3] -0.151 | [4] -0.145

POLR1E isoform 1 (UniProt Q9GZS1)
inactive: [5] -0.479

POLD4 (UniProt Q9HCU8)
inactive: [1] -0.07 | [2] 0.078 | [3] -0.044 | [4] 0.085

POLE3 (UniProt Q9NRF9)
inactive: [1] -0.058 | [2] 0.052 | [5] 0.064 | [3] -0.002 | [4] 0.024

PMS2 (UniProt P54278)
inactive: [2] 0.056 | [5] 0.139 | [4] -0.05
